Data reported in PubChem BioAssay AID330 (DTP/NCI, 2004).
The list shows only some results of the screen, not a fair sample: it gathers tests that were run many times, whatever their T/C, doses with no T/C, and many T/C values between a quarter and a half above the control. Other doses and runs of a compound stand elsewhere. T/C is the treated group as % of the vehicle group. Some doses have a count of surviving animals in place of a T/C: the source files T/C as zero there, which appears to mark a toxic dose or a test without result, not a measured value. Some survivor counts are full or nearly so, which does not show that the dose was tolerated: the source hardly ever lists a survival T/C far under the control, and the zero likely stands for such cases as well. Counts of survivors are from the toxicity check (mostly the fifth day) where no day follows; animals may have died later. Schedules are NCI's codes, taken here to give the interval after Q, in days (D) or hours (H), and the number of doses after X. For survival time, the PubChem record calls one and a half times the control and up active, and a quarter to a half above the control has no call in these data; cut-offs in other NCI protocols can differ. Some entries were tested several times; the results are listed from low to high. Some T/C values are followed by the survivors on the day toxicity was checked, most often the fifth; without a count, all were alive then.

Tested on: P388 leukemia ip, CD2F1 mice, survival T/C
Test: NCI In Vivo Anticancer Drug Screen. Data for tumor model P388 Leukemia (intraperitoneal) in CD2F1 (CDF1) mice
Conditions: T/C endpoint: median survival time, higher T/C = longer survival
[1] = dose: 50.0 mg/kg/injection, schedule: Q01DX009 (ip), vehicle: saline
[2] = dose: 100.0 mg/kg/injection, schedule: Q01DX009 (ip), vehicle: saline
[3] = dose: 200.0 mg/kg/injection, schedule: Q01DX009 (ip), vehicle: saline
[4] = dose: 200.0 mg/kg/injection, schedule: Q01DX009 (ip), vehicle: saline with Tween-80
[5] = dose: 240.0 mg/kg/injection, schedule: Q01DX005 (ip), vehicle: saline with Tween-80
[6] = dose: 200.0 mg/kg/injection, schedule: Q01DX009 (ip), vehicle: other
[7] = dose: 200.0 mg/kg/injection, schedule: Q01DX005 (ip), vehicle: saline with Tween-80
[8] = dose: 25.0 mg/kg/injection, schedule: Q01DX009 (ip), vehicle: saline with Tween-80
[9] = dose: 100.0 mg/kg/injection, schedule: Q01DX009 (ip), vehicle: saline with Tween-80
[10] = dose: 200.0 mg/kg/injection, schedule: Q01DX005 (ip), vehicle: saline

## COc1cccc(C(=O)C(CN(C)C)CN(C)C)c1
[1]
  survivor count: 0 of 6
[2]
  survivor count: 0 of 6
[3]
  survivor count: 0 of 6

## CN=C(c1ccc(NC(=O)c2cc(N)cc(C(=O)Nc3ccc(C(=NC)N(C)C)cc3)c2)cc1)N(C)C
dose: 25.0 mg/kg/injection, schedule: Q01DX005 (ip), vehicle: Klucel (hydroxypropylcellulose) (HPC)
  survivor count: 0 of 6
dose: 50.0 mg/kg/injection, schedule: Q01DX005 (ip), vehicle: Klucel (hydroxypropylcellulose) (HPC)
  survivor count: 0 of 6
dose: 100.0 mg/kg/injection, schedule: Q01DX005 (ip), vehicle: Klucel (hydroxypropylcellulose) (HPC)
  survivor count: 0 of 6
dose: 200.0 mg/kg/injection, schedule: Q01DX005 (ip), vehicle: Klucel (hydroxypropylcellulose) (HPC)
  survivor count: 0 of 6

## C/C=C/C=C\C=C/C(O)CC(OP(=O)(O)O)C(C)(O)/C=C/C1CC=CC(=O)O1 (stereo unspecified)
dose: 0.38 mg/kg/injection, schedule: Q01DX005 (ip), vehicle: water
  T/C: 135 % of control
dose: 0.75 mg/kg/injection, schedule: Q01DX005 (ip), vehicle: water
  T/C: 135 % of control
dose: 1.5 mg/kg/injection, schedule: Q01DX005 (ip), vehicle: water
  T/C: 138 % of control
dose: 3.0 mg/kg/injection, schedule: Q01DX005 (ip), vehicle: water
  T/C: 130 and 148 % of control
dose: 3.12 mg/kg/injection, schedule: Q01DX005 (ip), vehicle: water
  T/C: 140 % of control
dose: 6.0 mg/kg/injection, schedule: Q01DX005 (ip), vehicle: water
  T/C: 139 % of control
dose: 6.25 mg/kg/injection, schedule: Q01DX005 (ip), vehicle: water
  survivor count: 0 of 6
dose: 12.5 mg/kg/injection, schedule: Q01DX005 (ip), vehicle: water
  survivor count: 0 of 6
dose: 25.0 mg/kg/injection, schedule: Q01DX005 (ip), vehicle: water
  survivor count: 0 of 6
dose: 50.0 mg/kg/injection, schedule: Q01DX005 (ip), vehicle: water
  survivor count: 0 of 6

## C=CCC(NC(=O)CCl)C(=O)O (stereo unspecified)
[3]
  survivor count: 3 of 6

## N#CN=CN1CCC(Cc2ccccc2)CC1
[4]
  survivor count: 6 of 6

## CCN(CC)C(C)(C)C(=O)/C=C/c1ccc(C)cc1
[5]
  survivor count: 6 of 6

## COc1ccc(-c2nccc3cc(OC)c(OC)cc23)cc1O
[6]
  survivor count: 3 of 6
dose: 400.0 mg/kg/injection, schedule: Q01DX009 (ip), vehicle: other
  survivor count: 0 of 6

## CCNC(CC)CCCNc1cc(OC)cc2cccnc12 (stereo unspecified)
dose: 50.0 mg/kg/injection, schedule: Q01DX005 (ip), vehicle: saline with Tween-80
  survivor count: 0 of 5
dose: 100.0 mg/kg/injection, schedule: Q01DX005 (ip), vehicle: saline with Tween-80
  survivor count: 0 of 5
[7]
  survivor count: 0 of 5

## CCCCCCCCCCC[N+]1([O-])CCCCCC1
[1]
  survivor count: 6 of 6
[2]
  survivor count: 0 of 6
[3]
  survivor count: 0 of 6

## CONCc1ccc(C(=O)NC(C)C)cc1
dose: 400.0 mg/kg/injection, schedule: Q01DX009 (ip), vehicle: distilled water + Tween-80
  survivor count: 3 of 6

## O=C(Nc1ccccc1)OCc1c(COC(=O)Nc2ccccc2)c(-c2ccc(Cl)c(Cl)c2)n2c1CCC2
dose: 25.0 mg/kg/injection, schedule: Q01DX005 (ip), vehicle: distilled water + Tween-80
  T/C: 134 % of control
dose: 50.0 mg/kg/injection, schedule: Q01DX005 (ip), vehicle: distilled water + Tween-80
  T/C: 126 and 145 % of control
dose: 100.0 mg/kg/injection, schedule: Q01DX005 (ip), vehicle: distilled water + Tween-80
  T/C: 135 % of control
dose: 200.0 mg/kg/injection, schedule: Q01DX005 (ip), vehicle: distilled water + Tween-80
  T/C: 144 % of control
dose: 400.0 mg/kg/injection, schedule: Q01DX005 (ip), vehicle: distilled water + Tween-80
  survivor count: 5 of 6

## N#Cc1cnc(N)[nH]c1=O
dose: 120.0 mg/kg/injection, schedule: Q01DX005 (ip), vehicle: Klucel (hydroxypropylcellulose) (HPC)
  survivor count: 0 of 6
dose: 240.0 mg/kg/injection, schedule: Q01DX005 (ip), vehicle: Klucel (hydroxypropylcellulose) (HPC)
  survivor count: 0 of 6

## Cc1ccc2nc(N/N=C(\c3ccccc3)c3ccccn3)cc(C)c2c1
[7]
  survivor count: 6 of 6

## COc1c(Br)cc(/C=C/[N+](=O)[O-])cc1Br
[8]
  T/C: 133 % of control [5 of 6 alive]

## Cc1ccc(NC(=O)N(CCCCl)N=O)cc1
[9]
  survivor count: 6 of 6
dose: 400.0 mg/kg/injection, schedule: Q04DX003 (ip), vehicle: saline with Tween-80
  survivor count: 6 of 6

## CC(C)C/C=N\N=C(N)N
[10]
  survivor count: 0 of 6

## CC1=CCC(=O)O1
dose: 50.0 mg/kg/injection, schedule: Q01DX009 (ip), vehicle: suspension in saline
  survivor count: 6 of 6

## COc1cc(C(=O)N=Nc2c(O)[nH]c3ccc(Br)cc23)cc(OC)c1OC
dose: 25.0 mg/kg/injection, schedule: Q01DX009 (ip), vehicle: Klucel (hydroxypropylcellulose) (HPC)
  survivor count: 6 of 6
dose: 50.0 mg/kg/injection, schedule: Q01DX009 (ip), vehicle: Klucel (hydroxypropylcellulose) (HPC)
  survivor count: 6 of 6
dose: 100.0 mg/kg/injection, schedule: Q01DX009 (ip), vehicle: Klucel (hydroxypropylcellulose) (HPC)
  survivor count: 6 of 6
dose: 200.0 mg/kg/injection, schedule: Q01DX009 (ip), vehicle: Klucel (hydroxypropylcellulose) (HPC)
  survivor count: 6 of 6
dose: 400.0 mg/kg/injection, schedule: Q01DX009 (ip), vehicle: Klucel (hydroxypropylcellulose) (HPC)
  survivor count: 6 of 6

## CC(C)(c1ccc(OCOC(=O)NN)cc1)c1ccc(OCOC(=O)NN)cc1
[4]
  survivor count: 3 of 6

## CN(C)C(=O)c1cc(N2CC2)c([N+](=O)[O-])cc1[N+](=O)[O-]
dose: 3.12 mg/kg/injection, schedule: Q01DX009 (ip), vehicle: saline with Tween-80
  T/C: 125 % of control
dose: 12.5 mg/kg/injection, schedule: Q01DX009 (ip), vehicle: saline with Tween-80
  survivor count: 3 of 6
[8]
  survivor count: 2 of 6
dose: 50.0 mg/kg/injection, schedule: Q01DX009 (ip), vehicle: saline with Tween-80
  survivor count: 0 of 6
[9]
  survivor count: 0 of 6

## [Cl][Pt][Cl].[NH-]CC(=O)O
dose: 3.13 mg/kg/injection, schedule: Q01DX009 (ip), vehicle: water
  T/C: 129 % of control
dose: 6.25 mg/kg/injection, schedule: Q01DX009 (ip), vehicle: water
  T/C: 131 and 132 % of control
dose: 12.5 mg/kg/injection, schedule: Q01DX009 (ip), vehicle: water
  T/C: 148 and 149 % of control
dose: 100.0 mg/kg/injection, schedule: Q01DX009 (ip), vehicle: water
  survivor count: 3 of 6

## Cc1cc2c(C(C)C)c(O)c(O)c(C=Nc3ccc(C(=O)NCC(=O)O)cc3)c2c(O)c1-c1c(C)cc2c(C(C)C)c(O)c(O)c(C=Nc3ccc(C(=O)NCC(=O)O)cc3)c2c1O
[7]
  survivor count: 6 of 6

## c1ccc2oc(NCCSSCCNc3nc4ccccc4o3)nc2c1
dose: 100.0 mg/kg/injection, schedule: Q01DX009 (ip), vehicle: other
  survivor count: 6 of 6
[6]
  survivor count: 2 of 6

## Cc1cccc(=O)[n-]1.Cc1cccc(=O)[n-]1.Cc1cccc(=O)[n-]1.Cc1cccc(=O)[n-]1.Cc1cccc(=O)[n-]1.Cc1cccc(=O)[n-]1.Cc1cccc(=[OH+])[n-]1.Cc1cccc(=[OH+])[n-]1.[Rh+2].[Rh+2].[Rh+2].[Rh+2]
dose: 400.0 mg/kg/injection, schedule: Q04DX002 (ip), vehicle: Klucel (hydroxypropylcellulose) (HPC)
  survivor count: 0 of 6

## CCN(CC)CCCNC(=O)C(c1ccccc1)c1ccccc1
dose: 100.0 mg/kg/injection, schedule: Q01DX005 (ip), vehicle: saline
  survivor count: 3 of 5
[10]
  survivor count: 0 of 5

## CN1C(C)(C)CC(C(=O)c2ccccc2)(c2ccccc2)CC1(C)C
dose: 200.0 mg/kg/injection, schedule: Q01DX005 (ip), vehicle: saline + Tween-80 + alcohol
  survivor count: 0 of 6

## Cc1ccccc1CC1c2[nH]c3ccccc3c2CCN1C (stereo unspecified)
[5]
  survivor count: 3 of 6

## CNC(=O)O/N=C/c1ccccc1-c1ccccc1
[4]
  survivor count: 5 of 6
